The other results are listed elsewhere or left out.

Chains of the proteins cited; added tags and fusions are not shown.
UniProt Q0JBA9, entry or part of it: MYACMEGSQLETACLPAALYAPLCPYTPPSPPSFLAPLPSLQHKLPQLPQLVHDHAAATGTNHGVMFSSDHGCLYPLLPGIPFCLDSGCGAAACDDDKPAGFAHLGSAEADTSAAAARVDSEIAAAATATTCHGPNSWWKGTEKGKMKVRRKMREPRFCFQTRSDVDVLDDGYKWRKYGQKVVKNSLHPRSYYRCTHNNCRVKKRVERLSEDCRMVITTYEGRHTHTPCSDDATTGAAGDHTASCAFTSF

The target of this assay is OsWRKY34 (Oryza sativa, UniProt Q0JBA9 1-250). Put plainly: protein-binding microarray (RPBM); PBS, 2% BSA, 51.3 ng/ul salmon testes DNA, 50 uM zinc acetate, 200 nM TF, 25 C, 1 h; high values mean tight binding. The settings on record: protein: recombinant; tags: N-terminal polyhistidine and DsRed monomer fusion (pET32a); label: CyDye5-dUTP incorporated in the synthesized complementary strand; 3' TTTTT single-stranded linker to array surface; dsDNA, one strand shown. A digest of the protocol:
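Transcription factors, each fused N-terminally to a polyhistidine tag and DsRed, were expressed in E. coli BL21-CodonPlus and purified on Ni–NTA. A custom Agilent array was made double-stranded by primer extension with Cy5-dUTP and blocked with 2% BSA. It was incubated with 200 nM protein in PBS, 2% BSA, salmon testes DNA and 50 µM zinc acetate at 25 °C for 1 h, then washed. The binding signal is per-feature fluorescence intensity (arbitrary units) read on an Axon 4000B scanner.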
For the sequence “TCTCTCTCTCTCTCTCGTCTTCTCCGATCGCGGCGGAATGCGGAGTCACCTAGTGCAG”, the binding signal is 8400 fluorescence intensity (a.u.).
As for “TCCACTACTCTCTCTCTCCAGATCTCGCCCCACCGCCATGCGGAGTCACCTAGTGCAG”, the binding signal is 8390 fluorescence intensity (a.u.).
Take “AGCTGAAGCTGTTCCAAACATGCCCCTACTTCTCGTTCTACGGAGTCACCTAGTGCAG”: the binding signal was 9370 fluorescence intensity (a.u.).
The figure for “TGCTGGTGGTGTCAATTTCGTCCATTTTGGACCGCTGACGCGGAGTCACCTAGTGCAG” is 8580 fluorescence intensity (a.u.); for “TTCGTCCCATACTGTGCCCTTGCAAATATATGGAGGTTCCCGGAGTCACCTAGTGCAG” it is 10100 fluorescence intensity (a.u.).
To “TCCTGTTGCTGCTTCTGCCTCTCTCACATCTTCTTTCTTTCGGAGTCACCTAGTGCAG” belongs 10900 fluorescence intensity (a.u.); to “GAGTTGCGATATTTTAGACCGGGGATGGATGGATGGATGGCGGAGTCACCTAGTGCAG”, 8190 fluorescence intensity (a.u.).
To “GGCGGCGGCGGCAGGGGCGGCGGAGGGTTGGCGGCGGCGGCGGAGTCACCTAGTGCAG” belongs 11000 fluorescence intensity (a.u.).
As for “ATAATAATTGACTATTCATAGTGCATATTTTCTGACTTTCCGGAGTCACCTAGTGCAG”, the binding signal was 8480 fluorescence intensity (a.u.).
As for “GGGATGGATGGAGTATGATAGGATATGAAACATTTATACGCGGAGTCACCTAGTGCAG”, the binding signal was 9000 fluorescence intensity (a.u.).
As to “TCGGGTCCGATCTCTTTATTGCTTTGGTTAGTTTGATTCGCGGAGTCACCTAGTGCAG”, the binding signal is 9210 fluorescence intensity (a.u.).
In the case of “CAGATTGTTTTCCATGATTCTTAGCCTCTCTGATGTTTGACGGAGTCACCTAGTGCAG”, the binding signal was 9640 fluorescence intensity (a.u.).
With “TTGTTGATTTTTCTCTATGCTCTTTTCTCCCGTGAAAAAACGGAGTCACCTAGTGCAG”, the binding signal was 9340 fluorescence intensity (a.u.).
For “CGTAGCAGCCCAAACGTGTTCAACCAACGCAGCAAGTTTCCGGAGTCACCTAGTGCAG”, the binding signal was 8940 fluorescence intensity (a.u.).
In the case of “GAGAGATGGGGAAAAGGGATGGGTAGATAGATATTAGGTACGGAGTCACCTAGTGCAG”, the binding signal is 10800 fluorescence intensity (a.u.).
Turning to “TCCATCTTCCAGGCCTGCCCACTAGACATTTCCCATGGATCGGAGTCACCTAGTGCAG”, the binding signal is 8590 fluorescence intensity (a.u.).
Turning to “CATCAGGATCACTTTTTTCCTTCTAAGTTCTACACTCCAACGGAGTCACCTAGTGCAG”, the binding signal was 8950 fluorescence intensity (a.u.).
The figure for “GCACGCAAGCACGCCTCTCGTCGCGTTCCGTTTCGTTGCGCGGAGTCACCTAGTGCAG” is 10500 fluorescence intensity (a.u.); for “CCCGTATTTCCTAGGCCGTATACCGTATCCTCCTCGTCACCGGAGTCACCTAGTGCAG” it is 11400 fluorescence intensity (a.u.); for “CTGTTTTGCCATTGAAGTCTTATGAATTTTTCTTTTTTTACGGAGTCACCTAGTGCAG” it is 9100 fluorescence intensity (a.u.).
The figure for “TAAGTTGAGGGATCTCTGGTGAACTTATTCCACCCACTATCGGAGTCACCTAGTGCAG” is 8240 fluorescence intensity (a.u.).
The figure for “ATGTCTGCTACTGAACACTGCTCTTCCATTTCTACCATTTCGGAGTCACCTAGTGCAG” is 9250 fluorescence intensity (a.u.); for “TATGAGTTTCCGTGTCCAACTTTAATCGTTCGTCTTATTTCGGAGTCACCTAGTGCAG” it is 8590 fluorescence intensity (a.u.); for “CGGAGAGATAGATTGGTTGGTTGCGAGGGCGAGGCGGCGGCGGAGTCACCTAGTGCAG” it is 8230 fluorescence intensity (a.u.).
On to “TTTTTTTCTTGGGCTGGGTCCGCTGGGATTTATGTTTACACGGAGTCACCTAGTGCAG”, for which the binding signal is 12700 fluorescence intensity (a.u.).
As for “TGCGTACATATAAGTTTCATATCGGGGTTGTGGAAGTCCACGGAGTCACCTAGTGCAG”, the binding signal is 9900 fluorescence intensity (a.u.).
To “AAAATGATCCGGTTTCTCTGCCACAAAGCCTGAGGCCTCGCGGAGTCACCTAGTGCAG” belongs 9990 fluorescence intensity (a.u.); to “CCCCAACTTATCGTGTGTATTCATTCCTATTTGCAATTCACGGAGTCACCTAGTGCAG”, 9050 fluorescence intensity (a.u.).
The figure for “AGCTTCTGTTCTGGAAATTTGCCTTAACCTTGATACTGATCGGAGTCACCTAGTGCAG” is 8080 fluorescence intensity (a.u.).
Regarding “CACCTCTGCGCCCCTCGTCGCACCACCACCACCGAGTCATCGGAGTCACCTAGTGCAG”, the binding signal is 8100 fluorescence intensity (a.u.).
For “TTCGTGTTGCAGTTTGTCTTGTGATTTTGTTAAACTTAGGCGGAGTCACCTAGTGCAG”, the binding signal is 8830 fluorescence intensity (a.u.).
The figure for “TAGACGGATTATGTATTTTTTTTTGTTATTAGACTACGTTCGGAGTCACCTAGTGCAG” is 8060 fluorescence intensity (a.u.).
With “TTTTTTTCTCACGTCTTTCGTTGTCGCGCCATTTATTCCCCGGAGTCACCTAGTGCAG”, the binding signal is 10200 fluorescence intensity (a.u.).
The figure for “AGTAGTAGTGGTACAAGTGGTGGTTGTCGTCGTCGTAGTCCGGAGTCACCTAGTGCAG” is 10100 fluorescence intensity (a.u.); for “CGAGGGAGAGGGGAGAGGGGAGTGCGGCGGGTGAGGCGGGCGGAGTCACCTAGTGCAG” it is 9650 fluorescence intensity (a.u.).
The figure for “CATTCGCCAATTCGTCGCCGCCGCCCAACACGCTACGCCCCGGAGTCACCTAGTGCAG” is 9240 fluorescence intensity (a.u.); for “ATTCGCCAGCCACACCTCTCTCCATCCTCTCGTTCTCTCTCGGAGTCACCTAGTGCAG” it is 12400 fluorescence intensity (a.u.); for “CTCTTTCCGACCCCACCTGTCAGTGTAACCCACTCTCACTCGGAGTCACCTAGTGCAG” it is 8490 fluorescence intensity (a.u.).
The figure for “AAGAATCTGCCGGCAACCTTAACCACCCTCTCCTTCCTTGCGGAGTCACCTAGTGCAG” is 8220 fluorescence intensity (a.u.); for “GGGGACGGGGCGGCCGAAGCGGTTGAAGTGGACGTCGGGGCGGAGTCACCTAGTGCAG” it is 12100 fluorescence intensity (a.u.).
With “TCGATCGTTGACCACCGACATCAGTAGAATCCGGAGGGCTCGGAGTCACCTAGTGCAG”, the binding signal is 11900 fluorescence intensity (a.u.).
To “AGACAAACGGTTAAACATATTTGAAAAGTCAACGGCGTCACGGAGTCACCTAGTGCAG” belongs 8880 fluorescence intensity (a.u.).

The values are drawn from article PMC7819943, “Rice protein-binding microarrays: a tool to detect cis-acting elements near promoter regions in rice”.
